Measured values reported in US8603949B2, “Libraries of optimized cytochrome P450 enzymes and the optimized P450 enzymes” (California Institute of Technology, priority 2003, dated 2013).

Experiment: Folding by reduced CO difference spectroscopy (Soret band)
Assay type: physicochemical
Details: for Folded: reduced CO difference spectroscopy; for λ max for Soret band: reduced CO difference spectrum

Molecule	Folded	λ max for Soret band [nm]
Chimera 43-135: CYP102A1 heme domain with residues 43-135 from CYP102A2 (protein, Chimeric Cytochrome P450 heme group sequence from Bacillus megaterium and Bacillus subtilis, CYP102A1 heme domain with residues 43-135 from CYP102A2) TIKEMPQPKTFGELKNLPLLNTDKPVQALMKIADELGEIFKFHTPAGTTIVVSGHELVKEVCDEERFDKSIEGALEKVRAFSGDGLATSWTHEPNWRKAHNILMPTFSQRAMKDYHEKMVDIAVQLIQKWARLNPDEHIEVPEDMTRLTLDTIGLCGFNYRFNSFYRDQPHPFITSMVRALDEAMNKLQRANPDDPAYDENKRQFQEDIKVMNDLVDKIIADRKASGEQSDDLLTHMLNGKDPETGEPLDDENIRYQIITFLIAGHETTSGLLSFALYFLVKNPHVLQKAAEEAARVLVDPVPSYKQVKQLKYVGMVLNEALRLWPTAPAFSLYAKEDTVLGGEYPLEKGDELMVLIPQLHRDKTIWGDDVEEFRPERFENPSAIPQHAFKPFGNGQRACIGQQFALHEATLVLGMMLKHFDFEDHTNYELDIKETLTLKPEGFVVKAKSKKIPLGGIPSPST	yes	448
Chimera 50-140: CYP102A1 heme domain with residues 50-140 from CYP102A2 (protein, Chimeric Cytochrome P450 heme group sequence from Bacillus megaterium and Bacillus subtilis, CYP102A1 heme domain with residues 50-140 from CYP102A2) TIKEMPQPKTFGELKNLPLLNTDKPVQALMKIADELGEIFKFEAPGRVTIVVSGHELVKEVCDEERFDKSIEGALEKVRAFSGDGLATSWTHEPNWRKAHNILMPTFSQRAMKDYHEKMVDIAVQLIQKWARLNPNEAVDVPEDMTRLTLDTIGLCGFNYRFNSFYRDQPHPFITSMVRALDEAMNKLQRANPDDPAYDENKRQFQEDIKVMNDLVDKIIADRKASGEQSDDLLTHMLNGKDPETGEPLDDENIRYQIITFLIAGHETTSGLLSFALYFLVKNPHVLQKAAEEAARVLVDPVPSYKQVKQLKYVGMVLNEALRLWPTAPAFSLYAKEDTVLGGEYPLEKGDELMVLIPQLHRDKTIWGDDVEEFRPERFENPSAIPQHAFKPFGNGQRACIGQQFALHEATLVLGMMLKHFDFEDHTNYELDIKETLTLKPEGFVVKAKSKKIPLGGIPSPST	yes	448
Chimera 70-299: CYP102A1 heme domain with residues 70-299 from CYP102A2 (protein, Chimeric Cytochrome P450 heme group sequence from Bacillus megaterium and Bacillus subtilis, CYP102A1 heme domain with residues 70-299 from CYP102A2) TIKEMPQPKTFGELKNLPLLNTDKPVQALMKIADELGEIFKFEAPGRVTRYLSSQRLIKEACDESRFDKSIEGALEKVRAFSGDGLATSWTHEPNWRKAHNILMPTFSQRAMKDYHEKMVDIAVQLIQKWARLNPNEAVDVPGDMTRLTLDTIGLCGFNYRFNSYYRETPHPFINSMVRALDEAMHQMQRLDVQDKLMVRTKRQFRYDIQTMFSLVDSIIAERRANGDQDEKDLLARMLNVEDPETGEKLDDENIRFQIITFLIAGHETTSGLLSFATYFLLKHPDKLKKAYEEVDRVLTDPVPSYKQVKQLKYVGMVLNEALRLWPTAPAFSLYAKEDTVLGGEYPLEKGDELMVLIPQLHRDKTIWGDDVEEFRPERFENPSAIPQHAFKPFGNGQRACIGQQFALHEATLVLGMMLKHFDFEDHTNYELDIKETLTLKPEGFVVKAKSKKIPLGGIPSPST	yes	448
Chimera 364-403: CYP102A1 heme domain with residues 364-403 from CYP102A2 (protein, Chimeric Cytochrome P450 heme group sequence from Bacillus megaterium and Bacillus subtilis, CYP102A1 heme domain with residues 364-403 from CYP102A2) TIKEMPQPKTFGELKNLPLLNTDKPVQALMKIADELGEIFKFEAPGRVTRYLSSQRLIKEACDESRFDKNLSQALKFVRDFAGDGLATSWTHEKNWKKAHNILLPSFSQQAMKGYHAMMVDIAVQLVQKWERLNADEHIEVPEDMTRLTLDTIGLCGFNYRFNSFYRDQPHPFITSMVRALDEAMNKLQRANPDDPAYDENKRQFQEDIKVMNDLVDKIIADRKASGEQSDDLLTHMLNGKDPETGEPLDDENIRYQIITFLIAGHETTSGLLSFALYFLVKNPHVLQKAAEEAARVLVDPVPSYKQVKQLKYVGMVLNEALRLWPTAPAFSLYAKEDTVLGGEYPLEKGDELMVLIPQLHRDRDAWGKDAEEFRPERFEHQDQVPHHAYKPFGNGQRACIGMQFALHEATLVLGMMLKHFDFEDHTNYELDIKETLTLKPEGFVVKAKSKKIPLGGIPSPST	yes	449
Chimera 46-73: CYP102A1 heme domain with residues 46-73 from CYP102A2 (protein, Chimeric Cytochrome P450 heme group sequence from Bacillus megaterium and Bacillus subtilis, CYP102A1 heme domain with residues 46-73 from CYP102A2) TIKEMPQPKTFGELKNLPLLNTDKPVQALMKIADELGEIFKFEAPAGTTIVVSGHELVKEVCDEERFDKSIEGALKFVRDFAGDGLATSWTHEKNWKKAHNILLPSFSQQAMKGYHAMMVDIAVQLVQKWERLNADEHIEVPEDMTRLTLDTIGLCGFNYRFNSFYRDQPHPFITSMVRALDEAMNKLQRANPDDPAYDENKRQFQEDIKVMNDLVDKIIADRKASGEQSDDLLTHMLNGKDPETGEPLDDENIRYQIITFLIAGHETTSGLLSFALYFLVKNPHVLQKAAEEAARVLVDPVPSYKQVKQLKYVGMVLNEALRLWPTAPAFSLYAKEDTVLGGEYPLEKGDELMVLIPQLHRDKTIWGDDVEEFRPERFENPSAIPQHAFKPFGNGQRACIGQQFALHEATLVLGMMLKHFDFEDHTNYELDIKETLTLKPEGFVVKAKSKKIPLGGIPSPST	yes	448
CYP102A2: parent P450 heme domain from Bacillus subtilis, with the F88A mutation (protein, listed as Bacillus subtilis) KETSPIPQPKTFGPLGNLPLIDKDKPTLSLIKLAEEQGPIFQIHTPAGTTIVVSGHELVKEVCDEERFDKSIEGALEKVRAFSGDGLATSWTHEPNWRKAHNILMPTFSQRAMKDYHEKMVDIAVQLIQKWARLNPNEAVDVPGDMTRLTLDTIGLCGFNYRFNSYYRETPHPFINSMVRALDEAMHQMQRLDVQDKLMVRTKRQFRYDIQTMFSLVDSIIAERRANGDQDEKDLLARMLNVEDPETGEKLDDENIRFQIITFLIAGHETTSGLLSFATYFLLKHPDKLKKAYEEVDRVLTDAAPTYKQVLELTYIRMILNESLRLWPTAPAFSLYPKEDTVIGGKFPITTNDRISVLIPQLHRDRDAWGKDAEEFRPERFEHQDQVPHHAYKPFGNGQRACIGMQFALHEATLVLGMILKYFTLIDHENYELDIKQTLTLKPGDFHISVQSRHQEAIHADVQAAE	yes	449
CYP102A1: parent P450 heme domain from Bacillus megaterium, with the F87A mutation (protein, listed as Bacillus megaterium) TIKEMPQPKTFGELKNLPLLNTDKPVQALMKIADELGEIFKFEAPGRVTRYLSSQRLIKEACDESRFDKNLSQALKFVRDFAGDGLATSWTHEKNWKKAHNILLPSFSQQAMKGYHAMMVDIAVQLVQKWERLNADEHIEVPEDMTRLTLDTIGLCGFNYRFNSFYRDQPHPFITSMVRALDEAMNKLQRANPDDPAYDENKRQFQEDIKVMNDLVDKIIADRKASGEQSDDLLTHMLNGKDPETGEPLDDENIRYQIITFLIAGHETTSGLLSFALYFLVKNPHVLQKAAEEAARVLVDPVPSYKQVKQLKYVGMVLNEALRLWPTAPAFSLYAKEDTVLGGEYPLEKGDELMVLIPQLHRDKTIWGDDVEEFRPERFENPSAIPQHAFKPFGNGQRACIGQQFALHEATLVLGMMLKHFDFEDHTNYELDIKETLTLKPEGFVVKAKSKKIPLGGIPSPST	yes	448
